In doi:10.1101/2022.12.14.520480:
These are yes or no findings as the source states them, for the method shown. In cells and extracts the contact can be indirect. These calls come from enrichment with a bait or labelling near it, and not all partners need be listed.

B1: PIP4K2A (protein, UniProt P48426 1-406)
chain: MATPGNLGSSVLASKTKTKKKHFVAQKVKLFRASDPLLSVLMWGVNHSINELSHVQIPVMLMPDDFKAYSKIKVDNHLFNKENMPSHFKFKEYCPMVFRNLRERFGIDDQDFQNSLTRSAPLPNDSQARSGARFHTSYDKRYIIKTITSEDVAEMHNILKKYHQYIVECHGITLLPQFLGMYRLNVDGVEIYVIVTRNVFSHRLSVYRKYDLKGSTVAREASDKEKAKELPTLKDNDFINEGQKIYIDDNNKKVFLEKLKKDVEFLAQLKLMDYSLLVGIHDVERAEQEEVECEENDGEEEGESDGTHPVGTPPDSPGNTLNSSPPLAPGEFDPNIDVYGIKCHENSPRKEVYFMAIIDILTHYDAKKKAAHAAKTVKHGAGAEISTVNPEQYSKRFLDFIGHILT
B2: VPS16 (protein, UniProt Q9H269 1-839)
chain: MDCYTANWNPLGDSAFYRKYELYSMDWDLKEELRDCLVAAAPYGGPIALLRNPWRKEKAASVRPVLDIYSASGMPLASLLWKSGPVVSLGWSAEEELLCVQEDGAVLVYGLHGDFRRHFSMGNEVLQNRVLDARIFHTEFGSGVAILTGAHRFTLSANVGDLKLRRMPEVPGLQSAPSCWTVLCQDRVAHILLAVGPDLYLLDHAACSAVTPPGLAPGVSSFLQMAVSFTYRHLALFTDTGYIWMGTASLKEKLCEFNCNIRAPPKQMVWCSRPRSKERAVVVAWERRLMVVGDAPESIQFVLDEDSYLVPELDGVRIFSRSTHEFLHEVPAASEEIFKIASMAPGALLLEAQKEYEKESQKADEYLREIQELGQLTQAVQQCIEAAGHEHQPDMQKSLLRAASFGKCFLDRFPPDSFVHMCQDLRVLNAVRDYHIGIPLTYSQYKQLTIQVLLDRLVLRRLYPLAIQICEYLRLPEVQGVSRILAHWACYKVQQKDVSDEDVARAINQKLGDTPGVSYSDIAARAYGCGRTELAIKLLEYEPRSGEQVPLLLKMKRSKLALSKAIESGDTDLVFTVLLHLKNELNRGDFFMTLRNQPMALSLYRQFCKHQELETLKDLYNQDDNHQELGSFHIRASYAAEERIEGRVAALQTAADAFYKAKNEFAAKATEDQMRLLRLQRRLEDELGGQFLDLSLHDTVTTLILGGHNKRAEQLARDFRIPDKRLWWLKLTALADLEDWEELEKFSKSKKSPIGYLPFVEICMKQHNKYEAKKYASRVGPEQKVKALLLVGDVAQAADVAIEHRNEAELSLVLSHCTGATDGATADKIQRARAQAQKK
B3: PLCG2 (protein, UniProt P16885 1-1265)
chain: MSTTVNVDSLAEYEKSQIKRALELGTVMTVFSFRKSTPERRTVQVIMETRQVAWSKTADKIEGFLDIMEIKEIRPGKNSKDFERAKAVRQKEDCCFTILYGTQFVLSTLSLAADSKEDAVNWLSGLKILHQEAMNASTPTIIESWLRKQIYSVDQTRRNSISLRELKTILPLINFKVSSAKFLKDKFVEIGAHKDELSFEQFHLFYKKLMFEQQKSILDEFKKDSSVFILGNTDRPDASAVYLHDFQRFLIHEQQEHWAQDLNKVRERMTKFIDDTMRETAEPFLFVDEFLTYLFSRENSIWDEKYDAVDMQDMNNPLSHYWISSSHNTYLTGDQLRSESSPEAYIRCLRMGCRCIELDCWDGPDGKPVIYHGWTRTTKIKFDDVVQAIKDHAFVTSSFPVILSIEEHCSVEQQRHMAKAFKEVFGDLLLTKPTEASADQLPSPSQLREKIIIKHKKLGPRGDVDVNMEDKKDEHKQQGELYMWDSIDQKWTRHYCAIADAKLSFSDDIEQTMEEEVPQDIPPTELHFGEKWFHKKVEKRTSAEKLLQEYCMETGGKDGTFLVRESETFPNDYTLSFWRSGRVQHCRIRSTMEGGTLKYYLTDNLTFSSIYALIQHYRETHLRCAEFELRLTDPVPNPNPHESKPWYYDSLSRGEAEDMLMRIPRDGAFLIRKREGSDSYAITFRARGKVKHCRINRDGRHFVLGTSAYFESLVELVSYYEKHSLYRKMRLRYPVTPELLERYNMERDINSLYDVSRMYVDPSEINPSMPQRTVKALYDYKAKRSDELSFCRGALIHNVSKEPGGWWKGDYGTRIQQYFPSNYVEDISTADFEELEKQIIEDNPLGSLCRGILDLNTYNVVKAPQGKNQKSFVFILEPKQQGDPPVEFATDRVEELFEWFQSIREITWKIDTKENNMKYWEKNQSIAIELSDLVVYCKPTSKTKDNLENPDFREIRSFVETKADSIIRQKPVDLLKYNQKGLTRVYPKGQRVDSSNYDPFRLWLCGSQMVALNFQTADKYMQMNHALFSLNGRTGYVLQPESMRTEKYDPMPPESQRKILMTLTVKVLGARHLPKLGRSIACPFVEVEICGAEYDNNKFKTTVVNDNGLSPIWAPTQEKVTFEIYDPNLAFLRFVVYEEDMFSDPNFLAHATYPIKAVKSGFRSVPLKNGYSEDIELASLLVFCEMRPVLESEEELYSSCRQLRRRQEELNNQLFLYDTHQNLRNANRDALVKEFSVNENQLQLYQEKCNKRLREKRVSNSKFYS
B4: VPS50 (protein, UniProt Q96JG6 1-964)
chain: MQKIKSLMTRQGLKSPQESLSDLGAIESLRVPGKEEFRELREQPSDPQAEQELINSIEQVYFSVDSFDIVKYELEKLPPVLNLQELEAYRDKLKQQQAAVSKKVADLILEKQPAYVKELERVTSLQTGLQLAAVICTNGRRHLNIAKEGFTQASLGLLANQRKRQLLIGLLKSLRTIKTLQRTDVRLSEMLEEEDYPGAIQLCLECQKAASTFKHYSCISELNSKLQDTLEQIEEQLDVALSKICKNFDINHYTKVQQAYRLLGKTQTAMDQLHMHFTQAIHNTVFQVVLGYVELCAGNTDTKFQKLQYKDLCTHVTPDSYIPCLADLCKALWEVMLSYYRTMEWHEKHDNEDTASASEGSNMIGTEETNFDRGYIKKKLEHGLTRIWQDVQLKVKTYLLGTDLSIFKYDDFIFVLDIISRLMQVGEEFCGSKSEVLQESIRKQSVNYFKNYHRTRLDELRMFLENETWELCPVKSNFSILQLHEFKFMEQSRSPSVSPSKQPVSTSSKTVTLFEQYCSGGNPFEIQANHKDEETEDVLASNGYESDEQEKSAYQEYDSDSDVPEELKRDYVDEQTGDGPVKSVSRETLKSRKKSDYSLNKVNAPILTNTTLNVIRLVGKYMQMMNILKPIAFDVIHFMSQLFDYYLYAIYTFFGRNDSLESTGLGLSSSRLRTTLNRIQESLIDLEVSADPTATLTAAEERKEKVPSPHLSHLVVLTSGDTLYGLAERVVATESLVFLAEQFEFLQPHLDAVMPAVKKPFLQQFYSQTVSTASELRKPIYWIVAGKALDYEQMLLLMANVKWDVKEIMSQHNIYVDALLKEFEQFNRRLNEVSKRVRIPLPVSNILWEHCIRLANRTIVEGYANVKKCSNEGRALMQLDFQQFLMKLEKLTDIRPIPDKEFVETYIKAYYLTENDMERWIKEHREYSTKQLTNLVNVCLGSHINKKARQKLLAAIDDIDRPKR
B5: INPPL1 (protein, UniProt O15357 1-1258)
chain: MASACGAPGPGGALGSQAPSWYHRDLSRAAAEELLARAGRDGSFLVRDSESVAGAFALCVLYQKHVHTYRILPDGEDFLAVQTSQGVPVRRFQTLGELIGLYAQPNQGLVCALLLPVEGEREPDPPDDRDASDGEDEKPPLPPRSGSTSISAPTGPSSPLPAPETPTAPAAESAPNGLSTVSHDYLKGSYGLDLEAVRGGASHLPHLTRTLATSCRRLHSEVDKVLSGLEILSKVFDQQSSPMVTRLLQQQNLPQTGEQELESLVLKLSVLKDFLSGIQKKALKALQDMSSTAPPAPQPSTRKAKTIPVQAFEVKLDVTLGDLTKIGKSQKFTLSVDVEGGRLVLLRRQRDSQEDWTTFTHDRIRQLIKSQRVQNKLGVVFEKEKDRTQRKDFIFVSARKREAFCQLLQLMKNKHSKQDEPDMISVFIGTWNMGSVPPPKNVTSWFTSKGLGKTLDEVTVTIPHDIYVFGTQENSVGDREWLDLLRGGLKELTDLDYRPIAMQSLWNIKVAVLVKPEHENRISHVSTSSVKTGIANTLGNKGAVGVSFMFNGTSFGFVNCHLTSGNEKTARRNQNYLDILRLLSLGDRQLNAFDISLRFTHLFWFGDLNYRLDMDIQEILNYISRKEFEPLLRVDQLNLEREKHKVFLRFSEEEISFPPTYRYERGSRDTYAWHKQKPTGVRTNVPSWCDRILWKSYPETHIICNSYGCTDDIVTSDHSPVFGTFEVGVTSQFISKKGLSKTSDQAYIEFESIEAIVKTASRTKFFIEFYSTCLEEYKKSFENDAQSSDNINFLKVQWSSRQLPTLKPILADIEYLQDQHLLLTVKSMDGYESYGECVVALKSMIGSTAQQFLTFLSHRGEETGNIRGSMKVRVPTERLGTRERLYEWISIDKDEAGAKSKAPSVSRGSQEPRSGSRKPAFTEASCPLSRLFEEPEKPPPTGRPPAPPRAAPREEPLTPRLKPEGAPEPEGVAAPPPKNSFNNPAYYVLEGVPHQLLPPEPPSPARAPVPSATKNKVAITVPAPQLGHHRHPRVGEGSSSDEESGGTLPPPDFPPPPLPDSAIFLPPSLDPLPGPVVRGRGGAEARGPPPPKAHPRPPLPPGPSPASTFLGEVASGDDRSCSVLQMAKTLSEVDYAPAGPARSALLPGPLELQPPRGLPSDYGRPLSFPPPRIRESIQEDLAEEAPCLQGGRASGLGEAGMSAWLRAIGLERYEEGLVHNGWDDLEFLSDITEEDLEEAGVQDPAHKRLLLDTLQLSK
B6: INPP5F (protein, UniProt Q9Y2H2 1-1132)
chain: MELFQAKDHYILQQGERALWCSRRDGGLQLRPATDLLLAWNPICLGLVEGVIGKIQLHSDLPWWLILIRQKALVGKLPGDHEVCKVTKIAVLSLSEMEPQDLELELCKKHHFGINKPEKIIPSPDDSKFLLKTFTHIKSNVSAPNKKKVKESKEKEKLERRLLEELLKMFMDSESFYYSLTYDLTNSVQRQSTGERDGRPLWQKVDDRFFWNKYMIQDLTEIGTPDVDFWIIPMIQGFVQIEELVVNYTESSDDEKSSPETPPQESTCVDDIHPRFLVALISRRSRHRAGMRYKRRGVDKNGNVANYVETEQLIHVHNHTLSFVQTRGSVPVFWSQVGYRYNPRPRLDRSEKETVAYFCAHFEEQLNIYKKQVIINLVDQAGREKIIGDAYLKQVLLFNNSHLTYVSFDFHEHCRGMKFENVQTLTDAIYDIILDMKWCWVDEAGVICKQEGIFRVNCMDCLDRTNVVQAAIARVVMEQQLKKLGVMPPEQPLPVKCNRIYQIMWANNGDSISRQYAGTAALKGDFTRTGERKLAGVMKDGVNSANRYYLNRFKDAYRQAVIDLMQGIPVTEDLYSIFTKEKEHEALHKENQRSHQELISQLLQSYMKLLLPDDEKFHGGWALIDCDPSLIDATHRDVDVLLLLSNSAYYVAYYDDEVDKVNQYQRLSLENLEKIEIGPEPTLFGKPKFSCMRLHYRYKEASGYFHTLRAVMRNPEEDGKDTLQCIAEMLQITKQAMGSDLPIIEKKLERKSSKPHEDIIGIRSQNQGSLAQGKNFLMSKFSSLNQKVKQTKSNVNIGNLRKLGNFTKPEMKVNFLKPNLKVNLWKSDSSLETMENTGVMDKVQAESDGDMSSDNDSYHSDEFLTNSKSDEDRQLANSLESVGPIDYVLPSCGIIASAPRLGSRSQSLSSTDSSVHAPSEITVAHGSGLGKGQESPLKKSPSAGDVHILTGFAKPMDIYCHRFVQDAQNKVTHLSETRSVSQQASQERNQMTNQVSNETQSESTEQTPSRPSQLDVSLSATGPQFLSVEPAHSVASQKTPTSASSMLELETGLHVTPSPSESSSSRAVSPFAKIRSSMVQVASITQAGLTHGINFAVSKVQKSPPEPEIINQVQQNELKKMFIQCQTRIIQI

Target: T1, LAMP1-APEX2 (UniProt P11279)
T1 sequence: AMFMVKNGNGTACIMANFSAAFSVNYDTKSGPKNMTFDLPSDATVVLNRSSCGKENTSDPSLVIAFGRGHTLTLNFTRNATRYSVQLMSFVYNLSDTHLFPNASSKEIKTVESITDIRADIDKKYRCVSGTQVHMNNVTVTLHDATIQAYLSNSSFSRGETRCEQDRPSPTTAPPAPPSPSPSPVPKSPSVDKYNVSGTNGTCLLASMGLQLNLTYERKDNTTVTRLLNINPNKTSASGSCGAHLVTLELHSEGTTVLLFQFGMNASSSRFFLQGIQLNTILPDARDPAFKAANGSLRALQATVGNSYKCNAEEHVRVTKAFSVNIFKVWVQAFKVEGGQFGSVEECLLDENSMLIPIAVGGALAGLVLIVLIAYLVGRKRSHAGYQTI
Assay: proximity labelling

binding, binds:
B1
B2
B3
B4
B5
B6
